No constants are given. Whether binding was seen depends on the method and setting. Some results given as binding are weak or reduced against the parent protein; the word gives no strength.

The target of this assay is T1, Bqt3 (S. pombe) (UniProt O74510).
T1 sequence: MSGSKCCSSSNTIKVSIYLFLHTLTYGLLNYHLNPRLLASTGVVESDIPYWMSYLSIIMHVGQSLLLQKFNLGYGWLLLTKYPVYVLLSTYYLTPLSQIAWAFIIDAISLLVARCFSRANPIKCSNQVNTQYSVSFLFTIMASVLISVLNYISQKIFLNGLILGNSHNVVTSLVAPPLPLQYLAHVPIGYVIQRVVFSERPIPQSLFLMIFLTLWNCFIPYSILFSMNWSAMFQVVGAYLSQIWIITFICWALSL
Briefly: two-hybrid; Clontech … system; Bqt4 in pGADT7-AD and Bqt3 in pGBKT7-DB co-transfected into S. cerevisiae AH109; 1.0 x 10^6 cells spotted on SD -Leu/-Trp or -Ade/-His/-Leu/-Trp plates, 30 °C, 3 days.

B1: Bqt4 ΔKSE mutant (Δ364–383 aa) (protein, UniProt O60158)
chain: MTENEKSRSLPAERNPLYKDDTLDHTPLIPKCRAQVIEFPDGPATFVRLKCTNPESKVPHFLMRMAKDSSISATSMFRSAFPKATQEEEDLEMRWIRDNLNPIEDKRVAGLWVPPADALALAKDYSMTPFINALLEASSTPSTYATPSRPTAQKSETSEGEPESSTSATTTSVARRTRQRLAEHLENSKKTILQHDNKEEDKEIHSEENETKDEIKSEKKEPEIKKQEGGSSTEKVGQPSSSDDKAKGSTSKDQPSEEEEKTSDIQDRKIKTPIKPSLLGKIRSSVNKGMTDVASQVNRGMTDVASQVNKGVNGVASQVNKGMNGVANQVNKGVTGVASQVRKPVGKLEKKFENLEKSIGDTLNEDYNAMVPVKRSRITKLESEVYYEKRKVRALGGIAIGLGVGAILPFLF
Turning to B1, the binding result was “binds”.

B2: wild-type Bqt4 (protein, UniProt O60158 1-432)
chain: MTENEKSRSLPAERNPLYKDDTLDHTPLIPKCRAQVIEFPDGPATFVRLKCTNPESKVPHFLMRMAKDSSISATSMFRSAFPKATQEEEDLEMRWIRDNLNPIEDKRVAGLWVPPADALALAKDYSMTPFINALLEASSTPSTYATPSRPTAQKSETSEGEPESSTSATTTSVARRTRQRLAEHLENSKKTILQHDNKEEDKEIHSEENETKDEIKSEKKEPEIKKQEGGSSTEKVGQPSSSDDKAKGSTSKDQPSEEEEKTSDIQDRKIKTPIKPSLLGKIRSSVNKGMTDVASQVNRGMTDVASQVNKGVNGVASQVNKGMNGVANQVNKGVTGVASQVRKPVGKLEKKFENLEKSIGDTLKSSIRSSPKSKKRSREDFEENEDYNAMVPVKRSRITKLESEVYYEKRKVRALGGIAIGLGVGAILPFLF
As for B2, the binding result is on record as “binds”.

(Values after article PMC11253665.)
